Reference: PMC6896337
No constants are given. Whether binding was seen depends on the method and setting. In cells and extracts the contact can be indirect. Some results given as binding are weak or reduced against the parent protein; the word gives no strength.

Sequences of proteins named here, by UniProt entry; tags and fusion partners are left off.
UniProt P08047: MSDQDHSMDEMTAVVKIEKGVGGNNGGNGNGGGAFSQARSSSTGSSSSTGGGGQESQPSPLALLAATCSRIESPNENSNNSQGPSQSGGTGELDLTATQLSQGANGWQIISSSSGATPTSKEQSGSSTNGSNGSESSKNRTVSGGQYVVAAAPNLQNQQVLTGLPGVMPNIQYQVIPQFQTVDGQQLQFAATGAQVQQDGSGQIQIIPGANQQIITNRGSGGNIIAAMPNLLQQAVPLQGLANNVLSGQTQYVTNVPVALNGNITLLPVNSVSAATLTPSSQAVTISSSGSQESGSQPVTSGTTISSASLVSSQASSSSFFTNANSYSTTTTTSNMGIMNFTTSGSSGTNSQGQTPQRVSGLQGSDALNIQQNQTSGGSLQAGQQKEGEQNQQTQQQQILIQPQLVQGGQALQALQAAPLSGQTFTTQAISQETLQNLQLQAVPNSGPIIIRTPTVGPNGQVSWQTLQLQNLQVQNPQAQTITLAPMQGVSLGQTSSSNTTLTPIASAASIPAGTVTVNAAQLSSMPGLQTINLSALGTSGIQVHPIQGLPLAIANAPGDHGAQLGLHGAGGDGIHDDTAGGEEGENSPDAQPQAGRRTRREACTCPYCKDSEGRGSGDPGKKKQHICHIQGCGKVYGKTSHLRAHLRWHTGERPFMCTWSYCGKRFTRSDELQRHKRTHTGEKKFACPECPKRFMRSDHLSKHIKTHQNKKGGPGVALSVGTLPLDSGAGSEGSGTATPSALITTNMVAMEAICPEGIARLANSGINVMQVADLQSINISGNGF

Experiments:
[1] = target: Sp1 (specificity protein 1), endogenous in SH-SY5Y transfectants (human (endogenous in SH-SY5Y)) (UniProt P08047); test: co-IP; stable NF-YAl, NF-YAs and NF-YAx1 SH-SY5Y transfectants; 500 μg extract, anti-Sp1 immunoprecipitation, Protein A Sepharose, 4 °C, Western blot for NF-YA; pre-immune IgG control; NF-YAl and NF-YAs bands overlap non-specific NS1 and NS2 bands
[2] = target: Sp1 (specificity protein 1) expressed in SL2 insect cells (UniProt P08047); test: co-IP; SL2 cells 72 h after co-transfection with pAc Sp1 and NF-YA insect expression vectors; 500 μg extract, anti-Sp1 immunoprecipitation, Protein A Sepharose, 4 °C, Western blot for NF-YA; pre-immune IgG control

Row | Substance | binding [1] | binding [2]
1 | NF-YAl in stable SH-SY5Y transfectants (from UniProt P23511-1 1-347) | binds | 
2 | NF-YAl expressed in SL2 insect cells (from UniProt P23511-1 1-347) |  | binds
